Experimental data taken from US8324199B2, “Pyridazine derivatives as factor xia inhibitors” (Bristol-Myers Squibb Company, priority 2008, dated 2012).
Some of these results come from one statement about several compounds together.

By UniProt entry, the sequences of proteins in these tests, tags left out. Residues count along the entry.
UniProt P03951, 19-387 partner limits assumed: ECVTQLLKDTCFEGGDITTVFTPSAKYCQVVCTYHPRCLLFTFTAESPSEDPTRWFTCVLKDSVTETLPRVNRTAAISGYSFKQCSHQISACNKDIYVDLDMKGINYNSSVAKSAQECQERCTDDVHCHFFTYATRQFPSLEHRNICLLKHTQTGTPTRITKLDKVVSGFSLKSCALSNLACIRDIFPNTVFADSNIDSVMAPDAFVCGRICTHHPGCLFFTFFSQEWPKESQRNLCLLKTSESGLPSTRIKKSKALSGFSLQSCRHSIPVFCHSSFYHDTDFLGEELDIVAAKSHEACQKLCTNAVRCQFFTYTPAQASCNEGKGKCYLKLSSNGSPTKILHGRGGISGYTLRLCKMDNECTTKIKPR
UniProt P03951, 388-625 limits assumed: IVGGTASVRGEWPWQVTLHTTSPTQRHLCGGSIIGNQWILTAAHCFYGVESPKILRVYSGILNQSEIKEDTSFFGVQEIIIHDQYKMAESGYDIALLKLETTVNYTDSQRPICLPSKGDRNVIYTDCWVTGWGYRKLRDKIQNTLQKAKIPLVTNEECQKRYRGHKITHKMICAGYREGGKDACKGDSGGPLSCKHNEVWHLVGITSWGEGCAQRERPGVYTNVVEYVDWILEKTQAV

Molecular target: T1, purified human Factor XIa (Homo sapiens, UniProt P03951)
T1 construct: purchased Haematologic Technologies
Test: Factor XIa assay (chromogenic substrate hydrolysis, Ki)
Format: biochemical
Conditions: tested in the Factor XIa assay described above
Experimental: The effectiveness of compounds of the present invention as inhibitors of the coagulation factors XIa, VIIa, IXa, Xa, XIIa, plasma kallikrein or thrombin, can be determined using a relevant purified serine protease, respectively, and an appropriate synthetic substrate. The rate of hydrolysis of the chromogenic or fluorogenic substrate by the relevant serine protease was measured both in the absence and presence of compounds of the present invention. […] A decrease in the rate of absorbance or fluorescence change in the presence of inhibitor is indicative of enzyme inhibition. Such methods are known to one skilled in the art. The results of this assay are expressed as the inhibitory constant, Ki.
Factor XIa determinations were made in 50 mM HEPES buffer at pH 7.4 containing 145 mM NaCl, 5 mM KCl, and 0.1% PEG 8000 (polyethylene glycol; JT Baker or Fisher Scientific). Determinations were made using purified human Factor XIa at a final concentration of 75-200 pM (Haematologic Technologies) and the synthetic substrate S-2366 (pyroGlu-Pro-Arg-pNA; Chromogenix or AnaSpec) at a concentration of 0.0002-0.001 M.
The Michaelis constant, Km, for substrate hydrolysis by each protease, was determined at 25° C. using the method of Lineweaver and Burk. Values of Ki were determined by allowing the protease to react with the substrate in the presence of the inhibitor. Reactions were allowed to go for periods of 20-180 minutes (depending on the protease) and the velocities (rate of absorbance or fluorescence change versus time) were measured. The following relationships were used to calculate Ki values: (vo−vs)/vs=I/(Ki(1+S/Km)) for a competitive inhibitor with one binding site; or vs/vo=A+((B−A)/1+((IC50/(I)^n))); and Ki=IC50/(1+S/Km) for a competitive inhibitor where: […]

Compound	Factor XIa inhibitory activity
NC(=O)CCOC(=O)Nc1ccc(-c2cnnc([C@H](Cc3ccccc3)NC(=O)/C=C/c3cc(Cl)ccc3-n3cnnn3)c2)cc1 [Example 79, (S,E)-3-Amino-3-oxopropyl 4-(6-(1-(3-(5-chloro-2-(1H-tetrazol-1-yl)phenyl)acrylamido)-2-phenylethyl)pyridazin-4-yl)phenylcarbamate]	having Factor XIa inhibitory activity
NC1CC1C(=O)Nc1ccc(-c2cnnc([C@H](Cc3ccccc3)NC(=O)/C=C/c3cc(Cl)ccc3-n3cnnn3)c2)cc1 (stereo partly drawn) [Example 80, 2-Amino-N-(4-(6-((S)-1-((E)-3-(5-chloro-2-(1H-tetrazol-1-yl)phenyl)acrylamido)-2-phenylethyl)pyridazin-4-yl)phenyl)cyclopropanecarboxamide]	having Factor XIa inhibitory activity
CC(C)(CO)NC(=O)Nc1ccc(-c2cnnc([C@H](Cc3ccccc3)NC(=O)/C=C/c3cc(Cl)ccc3-n3cnnn3)c2)cc1 [Example 81, (S,E)-3-(5-Chloro-2-(1H-tetrazol-1-yl)phenyl)-N-(1-(5-(4-(3-(1-hydroxy-2-methylpropan-2-yl)ureido)phenyl)pyridazin-3-yl)-2-phenylethyl)acrylamide]	having Factor XIa inhibitory activity
O=C(/C=C/c1cc(Cl)ccc1-n1cnnn1)N[C@@H](Cc1ccccc1)c1cc(-c2ccc(NC(=O)OC3CNC3)cc2)cnn1 [Example 89, (S,E)-Azetidin-3-yl 4-(6-(1-(3-(5-chloro-2-(1H-tetrazol-1-yl)phenyl)acrylamido)-2-phenylethyl)pyridazin-4-yl)phenylcarbamate]	having Factor XIa inhibitory activity
COC(=O)Nc1ccc(-c2cc([C@H](CCSC)NC(=O)/C=C/c3cc(Cl)ccc3-n3cnnn3)nnc2Cl)cc1 [Example 90, (S,E)-Methyl 4-(3-chloro-6-(1-(3-(5-chloro-2-(1H-tetrazol-1-yl)phenyl)acrylamido)-3-(methylthio)propyl)pyridazin-4-yl)phenylcarbamate]	having Factor XIa inhibitory activity
COC(=O)Nc1ccc(-c2cc([C@H](CCS(C)(=O)=O)NC(=O)/C=C/c3cc(Cl)ccc3-n3cnnn3)nnc2Cl)cc1 [Example 91, (S,E)-Methyl 4-(3-chloro-6-(1-(3-(5-chloro-2-(1H-tetrazol-1-yl)phenyl)acrylamido)-3-(methylsulfonyl)propyl)pyridazin-4-yl)phenylcarbamate]	having Factor XIa inhibitory activity
COC(=O)Nc1ccc(-c2cc([C@H](CC[S+](C)[O-])NC(=O)/C=C/c3cc(Cl)ccc3-n3cnnn3)nnc2Cl)cc1 (stereo partly drawn) [Example 92, Methyl 4-(3-chloro-6-((1S)-1-((E)-3-(5-chloro-2-(1H-tetrazol-1-yl)phenyl)acrylamido)-3-(methylsulfinyl)propyl)pyridazin-4-yl)phenylcarbamate]	having Factor XIa inhibitory activity
COC(=O)Nc1ccc(-c2cc([C@H](Cc3cc4n(n3)CCCO4)NC(=O)/C=C/c3cc(Cl)ccc3-n3cnnn3)nnc2Cl)cc1 [Example 97, (S,E)-Methyl 4-(3-chloro-6-(1-(3-(5-chloro-2-(1H-tetrazol-1-yl)phenyl)acrylamido)-2-(6,7-dihydro-5H-pyrazolo[5,1-b][1,3]oxazin-2-yl)ethyl)pyridazin-4-yl)phenylcarbamate]	having Factor XIa inhibitory activity
O=C(/C=C/c1cc(Cl)ccc1-n1cnnn1)N[C@@H](Cc1cccc(F)c1)c1cc(-c2ccc(NC(=O)NCCO)cc2)c(Cl)nn1 [Example 98, (S,E)-3-(5-Chloro-2-(1H-tetrazol-1-yl)phenyl)-N-(1-(6-chloro-5-(4-(3-(2-hydroxyethyl)ureido)phenyl)pyridazin-3-yl)-2-(3-fluorophenyl)ethyl)acrylamide]	having Factor XIa inhibitory activity
